Test results as given in paper doi:10.1101/2024.05.16.594269.
Read-outs that look alike come from different tables or passages of the source. Results are given in words; binding and its absence hold for the method and conditions named. In cells and extracts the contact can be indirect. A yes stands for co-enrichment or nearness to the bait. Other partners may have been found. One block for each molecule: values may come before it.

The chains behind the UniProt entries cited, without tags or fusion partners.
UniProt Q96A61: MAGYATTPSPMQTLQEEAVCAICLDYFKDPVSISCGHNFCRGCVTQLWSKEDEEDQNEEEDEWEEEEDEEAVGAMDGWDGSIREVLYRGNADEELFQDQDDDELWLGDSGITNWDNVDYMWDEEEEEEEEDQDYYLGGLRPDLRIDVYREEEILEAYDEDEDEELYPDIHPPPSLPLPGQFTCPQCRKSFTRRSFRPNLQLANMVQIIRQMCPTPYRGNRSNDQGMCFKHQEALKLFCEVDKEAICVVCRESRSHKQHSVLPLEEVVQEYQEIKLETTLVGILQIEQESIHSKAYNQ
UniProt Q9NR09: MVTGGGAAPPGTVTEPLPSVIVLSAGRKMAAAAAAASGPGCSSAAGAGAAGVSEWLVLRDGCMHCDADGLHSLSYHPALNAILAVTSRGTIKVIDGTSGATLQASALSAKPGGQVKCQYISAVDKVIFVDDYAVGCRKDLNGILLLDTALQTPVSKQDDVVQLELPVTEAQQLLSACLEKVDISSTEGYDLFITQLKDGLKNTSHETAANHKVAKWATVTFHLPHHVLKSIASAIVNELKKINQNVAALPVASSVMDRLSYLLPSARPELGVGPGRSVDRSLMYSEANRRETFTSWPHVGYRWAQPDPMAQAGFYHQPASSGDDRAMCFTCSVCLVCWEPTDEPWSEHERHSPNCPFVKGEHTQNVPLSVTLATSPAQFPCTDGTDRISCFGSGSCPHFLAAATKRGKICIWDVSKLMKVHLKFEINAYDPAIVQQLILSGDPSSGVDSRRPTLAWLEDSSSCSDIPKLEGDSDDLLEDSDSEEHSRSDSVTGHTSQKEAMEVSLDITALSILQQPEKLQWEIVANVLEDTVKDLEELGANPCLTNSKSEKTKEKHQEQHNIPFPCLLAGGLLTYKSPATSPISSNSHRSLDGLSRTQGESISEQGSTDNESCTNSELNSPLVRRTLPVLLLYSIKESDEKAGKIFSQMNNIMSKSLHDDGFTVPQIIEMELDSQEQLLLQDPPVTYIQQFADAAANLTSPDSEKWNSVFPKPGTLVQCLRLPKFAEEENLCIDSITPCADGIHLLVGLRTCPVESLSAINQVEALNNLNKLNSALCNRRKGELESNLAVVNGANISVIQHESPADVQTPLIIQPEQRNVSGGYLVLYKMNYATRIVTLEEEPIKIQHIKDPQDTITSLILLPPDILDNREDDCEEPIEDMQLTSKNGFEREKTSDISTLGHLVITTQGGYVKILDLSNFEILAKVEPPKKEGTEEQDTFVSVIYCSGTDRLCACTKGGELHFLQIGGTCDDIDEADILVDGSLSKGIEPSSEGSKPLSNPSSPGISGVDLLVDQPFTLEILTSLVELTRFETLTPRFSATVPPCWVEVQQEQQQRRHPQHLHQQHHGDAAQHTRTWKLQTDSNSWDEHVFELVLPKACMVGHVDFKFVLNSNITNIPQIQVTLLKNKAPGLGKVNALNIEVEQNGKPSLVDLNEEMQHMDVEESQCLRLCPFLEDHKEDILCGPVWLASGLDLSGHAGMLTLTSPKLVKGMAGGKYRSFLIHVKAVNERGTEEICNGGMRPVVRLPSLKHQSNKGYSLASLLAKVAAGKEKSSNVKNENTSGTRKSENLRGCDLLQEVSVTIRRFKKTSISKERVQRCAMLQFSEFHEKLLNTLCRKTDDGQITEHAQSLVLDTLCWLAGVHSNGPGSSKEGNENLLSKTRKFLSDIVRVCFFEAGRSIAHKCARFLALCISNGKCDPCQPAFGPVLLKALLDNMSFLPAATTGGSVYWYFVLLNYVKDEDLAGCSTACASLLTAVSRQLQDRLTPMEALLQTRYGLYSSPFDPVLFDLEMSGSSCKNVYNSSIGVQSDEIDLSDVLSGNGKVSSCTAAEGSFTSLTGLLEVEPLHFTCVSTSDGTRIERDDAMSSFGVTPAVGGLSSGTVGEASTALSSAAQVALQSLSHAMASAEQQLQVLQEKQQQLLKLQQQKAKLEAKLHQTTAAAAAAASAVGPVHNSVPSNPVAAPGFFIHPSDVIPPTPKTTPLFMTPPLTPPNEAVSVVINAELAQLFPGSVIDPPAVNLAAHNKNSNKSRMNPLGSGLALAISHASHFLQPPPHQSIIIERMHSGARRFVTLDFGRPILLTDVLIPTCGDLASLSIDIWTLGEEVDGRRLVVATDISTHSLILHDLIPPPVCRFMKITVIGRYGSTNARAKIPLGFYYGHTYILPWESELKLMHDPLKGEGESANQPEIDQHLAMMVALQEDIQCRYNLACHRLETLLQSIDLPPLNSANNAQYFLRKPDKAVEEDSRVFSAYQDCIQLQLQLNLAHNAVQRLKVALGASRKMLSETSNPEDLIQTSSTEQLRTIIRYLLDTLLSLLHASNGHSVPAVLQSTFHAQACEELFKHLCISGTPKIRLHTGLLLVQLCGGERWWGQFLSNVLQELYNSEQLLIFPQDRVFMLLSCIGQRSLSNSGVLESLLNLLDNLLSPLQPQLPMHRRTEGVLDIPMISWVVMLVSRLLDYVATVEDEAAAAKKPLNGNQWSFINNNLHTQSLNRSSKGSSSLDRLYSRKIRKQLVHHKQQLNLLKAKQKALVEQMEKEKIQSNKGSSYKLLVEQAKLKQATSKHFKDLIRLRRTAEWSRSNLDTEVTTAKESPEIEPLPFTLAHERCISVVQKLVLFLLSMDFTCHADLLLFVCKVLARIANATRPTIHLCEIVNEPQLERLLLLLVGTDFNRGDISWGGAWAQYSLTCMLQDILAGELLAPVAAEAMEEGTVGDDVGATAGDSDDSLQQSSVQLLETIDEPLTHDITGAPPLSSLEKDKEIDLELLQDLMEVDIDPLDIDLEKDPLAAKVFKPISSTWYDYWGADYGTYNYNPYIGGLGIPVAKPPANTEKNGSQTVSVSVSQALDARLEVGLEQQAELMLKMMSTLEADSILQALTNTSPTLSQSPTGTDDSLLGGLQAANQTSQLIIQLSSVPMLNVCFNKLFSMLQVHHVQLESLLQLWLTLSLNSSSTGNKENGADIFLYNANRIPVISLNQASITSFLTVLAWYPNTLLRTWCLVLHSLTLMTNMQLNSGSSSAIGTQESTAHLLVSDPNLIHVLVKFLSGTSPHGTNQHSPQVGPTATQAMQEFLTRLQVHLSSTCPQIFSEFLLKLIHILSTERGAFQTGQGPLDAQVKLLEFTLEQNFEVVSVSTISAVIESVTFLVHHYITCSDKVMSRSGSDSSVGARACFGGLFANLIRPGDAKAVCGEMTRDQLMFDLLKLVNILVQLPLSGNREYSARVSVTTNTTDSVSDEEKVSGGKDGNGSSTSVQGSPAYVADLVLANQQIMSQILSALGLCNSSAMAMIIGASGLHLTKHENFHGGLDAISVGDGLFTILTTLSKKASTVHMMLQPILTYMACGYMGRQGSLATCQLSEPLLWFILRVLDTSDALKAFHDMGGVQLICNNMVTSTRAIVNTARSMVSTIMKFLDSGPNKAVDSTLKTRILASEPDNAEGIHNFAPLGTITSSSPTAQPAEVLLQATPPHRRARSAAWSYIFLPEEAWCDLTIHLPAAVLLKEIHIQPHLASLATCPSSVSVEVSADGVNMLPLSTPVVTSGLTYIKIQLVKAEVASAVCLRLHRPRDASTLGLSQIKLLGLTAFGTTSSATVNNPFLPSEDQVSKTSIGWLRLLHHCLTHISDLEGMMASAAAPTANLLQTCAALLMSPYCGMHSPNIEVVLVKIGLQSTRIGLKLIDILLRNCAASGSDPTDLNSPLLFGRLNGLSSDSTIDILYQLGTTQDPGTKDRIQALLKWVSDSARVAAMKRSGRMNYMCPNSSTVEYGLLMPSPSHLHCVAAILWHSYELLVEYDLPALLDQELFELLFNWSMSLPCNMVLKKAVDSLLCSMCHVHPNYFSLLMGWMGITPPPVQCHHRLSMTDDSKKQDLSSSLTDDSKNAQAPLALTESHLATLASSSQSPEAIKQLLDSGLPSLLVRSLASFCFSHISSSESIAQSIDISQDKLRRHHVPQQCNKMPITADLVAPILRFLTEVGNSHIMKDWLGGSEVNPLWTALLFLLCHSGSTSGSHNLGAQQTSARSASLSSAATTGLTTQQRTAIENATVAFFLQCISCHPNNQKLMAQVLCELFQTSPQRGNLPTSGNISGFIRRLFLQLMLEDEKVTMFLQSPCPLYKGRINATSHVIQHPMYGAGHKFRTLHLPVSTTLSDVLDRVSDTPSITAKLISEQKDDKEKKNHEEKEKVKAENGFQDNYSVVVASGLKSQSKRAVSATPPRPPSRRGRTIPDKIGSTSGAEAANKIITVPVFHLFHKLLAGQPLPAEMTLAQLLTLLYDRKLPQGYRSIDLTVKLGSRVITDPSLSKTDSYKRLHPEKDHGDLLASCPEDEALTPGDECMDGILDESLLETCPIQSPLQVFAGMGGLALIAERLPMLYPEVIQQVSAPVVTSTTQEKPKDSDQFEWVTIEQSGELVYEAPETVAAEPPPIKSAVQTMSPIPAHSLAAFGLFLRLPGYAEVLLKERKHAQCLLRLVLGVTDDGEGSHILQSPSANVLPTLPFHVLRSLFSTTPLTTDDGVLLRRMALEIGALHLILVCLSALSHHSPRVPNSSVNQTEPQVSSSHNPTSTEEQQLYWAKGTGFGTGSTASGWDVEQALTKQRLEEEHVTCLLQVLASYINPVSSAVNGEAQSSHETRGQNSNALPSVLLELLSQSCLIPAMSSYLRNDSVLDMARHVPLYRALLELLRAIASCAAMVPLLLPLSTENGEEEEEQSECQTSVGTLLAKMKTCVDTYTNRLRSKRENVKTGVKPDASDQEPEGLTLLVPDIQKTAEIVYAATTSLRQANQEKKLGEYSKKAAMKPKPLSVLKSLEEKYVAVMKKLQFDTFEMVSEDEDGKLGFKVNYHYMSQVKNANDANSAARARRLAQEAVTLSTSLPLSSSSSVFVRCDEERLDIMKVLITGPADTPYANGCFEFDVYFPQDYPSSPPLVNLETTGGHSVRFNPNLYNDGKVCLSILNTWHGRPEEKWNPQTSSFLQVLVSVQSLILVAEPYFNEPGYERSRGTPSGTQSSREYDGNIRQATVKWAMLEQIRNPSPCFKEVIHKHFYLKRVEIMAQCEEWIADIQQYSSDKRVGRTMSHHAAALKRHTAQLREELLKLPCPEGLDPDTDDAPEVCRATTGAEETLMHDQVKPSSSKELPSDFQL

How the values were obtained:
[1] = target: TurboID-TRIM52 fusion (human) (UniProt Q96A61); test: proximity labelling
[2] = target: TurboID-TRIM52 fusion (human) (UniProt Q96A61); test: proximity labelling; remark: listed apart in the source

Molecule: HUWE1 (endogenous) (from UniProt Q7Z6Z7 1-4374) (enzyme)
- binding [1]: binds

B2: Zinc Finger Protein 451 (ZNF451) (enzyme, UniProt Q9Y4E5 1-1061)
chain: MGDPGSEIIESVPPAGPEASESTTDENEDDIQFVSEGPLRPVLEYIDLVSSDDEEPSTSYTDENIKRKDHIDYQKDKVALTLARLARHVEVEKQQKEEKNRAFREKIDFQHAHGLQELEFIRGHSDTEAARLCVDQWLKMPGLKTGTINCGTKSSFRRGGHTWVSGKPILCPIMHCNKEFDNGHLLLGHLKRFDHSPCDPTITLHGPFFSSFACVVCYKKFVTQQQYRDHLFDKEATDDGHNNNLLPQIIQCFACPNCFLLFSRKEECSKHMSGKNHFHQSFKLGDNKGIAHPISFPSFAKKLLISLCKDVPFQVKCVACHKTLRSHMELTAHFRVHCRNAGPVAVAEKSITQVAEKFILRGYCPDCNQVFVDETSTQNHKQNSGHKVRVINSVEESVLLYCHSSEGNKDPSSDLHLLLDQSKFSSLKRTMSIKESSSLECIAIPKKKMNLKDKSHEGVACVQKEKSVVKTWFCECNQRFPSEDAVEKHVFSANTMGYKCVVCGKVCDDSGVIRLHMSRIHGGAHLNNFLFWCRTCKKELTRKDTIMAHVTEFHNGHRYFYEMDEVEGETLPSSSTTLDNLTANKPSSAITVIDHSPANSSPRGKWQCRICEDMFDSQEYVKQHCMSLASHKFHRYSCAHCRKPFHKIETLYRHCQDEHDNEIKIKYFCGLCDLIFNVEEAFLSHYEEHHSIDYVFVSEKTETSIKTEDDFPVIETSNQLTCGCRESYICKVNRKEDYSRCLQIMLDKGKLWFRCSLCSATAQNLTDMNTHIHQVHKEKSDEEEQQYVIKCGTCTKAFHDPESAQQHFHRKHCFLQKPSVAHFGSEKSNLYKFTASASHTERKLKQAINYSKSLDMEKGVENDLSYQNIEEEIVELPDLDYLRTMTHIVFVDFDNWSNFFGHLPGHLNQGTFIWGFQGGNTNWKPPLNCKIYNYLNRIGCFFLHPRCSKRKDAADFAICMHAGRLDEQLPKQIPFTILSGDQGFLELENQFKKTQRPAHILNPHHLEGDMMCALLNSISDTTKECDSDDNMGAKNTSIGEEFISTEDVELEEAIRRSLEEM
- binding [2]: binds

The next lines start with the values.

- binding [1]: binds
Molecule: BIRC6 (endogenous) (from UniProt Q9NR09 1-4857) (enzyme)

- binding [2]: binds
B1: Tyrosyl-DNA Phosphodiesterase 2 (TDP2) (enzyme, UniProt O95551 1-362)
chain: MELGSCLEGGREAAEEEGEPEVKKRRLLCVEFASVASCDAAVAQCFLAENDWEMERALNSYFEPPVEESALERRPETISEPKTYVDLTNEETTDSTTSKISPSEDTQQENGSMFSLITWNIDGLDLNNLSERARGVCSYLALYSPDVIFLQEVIPPYYSYLKKRSSNYEIITGHEEGYFTAIMLKKSRVKLKSQEIIPFPSTKMMRNLLCVHVNVSGNELCLMTSHLESTRGHAAERMNQLKMVLKKMQEAPESATVIFAGDTNLRDREVTRCGGLPNNIVDVWEFLGKPKHCQYTWDTQMNSNLGITAACKLRFDRIFFRAAAEEGHIIPRSLDLLGLEKLDCGRFPSDHWGLLCNLDIIL
